Experimental data taken from PubChem BioAssay AID1487 (National Center for Advancing Translational Sciences (NCATS), 2009).
Several values for one entry are separate records, joined by “and”; a condition that tells them apart may be missing. Equal values may be shown once. This is one part of the list. These are further read-outs of the screen, such as a control signal, another cell line or another target. No call is given for them. Compounds called inactive in the main read-out are mostly missing here. Words in brackets tell the shape of the fitted curve; partial curves, single points and poor fits give uncertain potencies.

Experiment: qHTS Assay for Modulators of Lamin A Splicing
Details: HeLa LMNA splicing GFP/RFP minigene ratio, 48 h
How it was run: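 S3 HeLa stable clones carrying a lamin A-EGFP splicing minigene plus DsRed2 were seeded at 600 cells/well in Opti-MEM with 2% FBS, pin-dosed and incubated 48 h at 37°C. Acumen cytometry (488 nm) gave the GFP/RFP total-intensity ratio.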

[1] = measured here: GFP splicing reporter channel
[2] = measured here: RFP viability control channel

Row | SMILES | AC50 [1] | AC50 [2]
1 | COc1ccc(C(=O)Nc2nc3ccccc3[nH]2)cc1S(=O)(=O)N1CCOCC1 | 0.00316 µM [falling, full curve, poor fit] | –
2 | Cc1ccc(-c2cc3nc(-c4ccccc4)cc(N4CCC5(CC4)OCCO5)n3n2)cc1 | – | 35.5 µM [rising, single point]
3 | Fc1ccccc1COc1cccc(/C=N/n2cnnc2)c1 | 11.2 µM [rising, partial curve] | 25.1 µM [rising, single point]
4 | Cc1ccccc1-n1ncc(C(C)NC(=O)c2ccco2)c1C (configuration not stated) | 2 µM [falling, full curve, poor fit] | 12.6 µM [falling, partial curve]
5 | CCOc1cc(-c2noc(CCC(=O)Nc3cccnc3)n2)ccc1OC | 1.12 µM [rising, partial curve] | 12.6 µM [rising, partial curve]
6 | COc1ncc2nc(-c3ccc(F)cc3)c(=O)n(Cc3cccs3)c2n1 | 12.6 µM [falling, partial curve] | 22.4 µM [falling, partial curve]
7 | O=C(Nc1nc(-c2ccccn2)cs1)c1cc(Cl)ccc1[N+](=O)[O-] | 4.47 µM [rising, full curve, poor fit] | 14.1 µM [rising, partial curve, poor fit]
8 | COc1ccc(-n2cnc3cc(NS(=O)(=O)c4ccccc4)ccc32)cc1 | – | 12.6 µM [rising, partial curve, poor fit]
9 | Cn1c(NC(=O)c2ccco2)c(-c2ccccc2Cl)c(=O)c2ccccc21 | – | 31.6 µM [rising, single point]
10 | N#CCCCn1c(=O)oc2ccccc21 | 15.8 µM [falling, single point] | –
11 | COc1ccc2oc(=O)c(C(=O)N3CCN(c4ccc(F)cc4)CC3)cc2c1 | 12.6 µM [rising, single point] | 17.8 µM [rising, single point]
12 | CNc1nn(-c2cccc(Cl)c2)nc1N | – | 14.1 µM [rising, single point]
13 | CC1=C(C(=O)OCc2ccccc2)C(c2ccc(C(F)(F)F)cc2)NC(=O)N1CCCCCC(=O)O (configuration not stated) | 35.5 µM [rising, single point] | –
14 | CCCNc1nc(N2CCCC2)nc(N2CCCC2)n1 | 0.00891 µM [falling, full curve] | 0.00891 µM [falling, full curve, poor fit]
15 | Cc1cc(C(=O)NNC(=O)CCN2CCN(c3ccccc3)CC2)c2ccccc2n1 | 6.31 µM [falling, single point] | 6.31 µM [falling, partial curve]
16 | CSc1ccc(CCNC(=O)c2ccc(-n3c(C)cc4c3CCCC4)cc2)cc1 | – | 12.6 µM [falling, partial curve, poor fit]
17 | C/C(=N\NC(=O)CNc1cccc(Cl)c1C)C1CC1 | – | 0.00891 µM [falling, full curve, poor fit]
18 | CC(=O)Nc1ccc(S(=O)(=O)N2CCN(CC3CC4C=CC3C4)CC2)cc1 (configuration not stated) | 0.316 µM [falling, full curve, poor fit] | 0.562 µM [falling, full curve]
19 | Cc1[nH]n(-c2ccccc2)c(=O)c1/C=N/NC(=O)c1cccc([N+](=O)[O-])c1 | 5.62 µM [rising, single point] | 5.62 µM [rising, single point]
20 | O=C(COCc1cc(-c2ccc3c(c2)OCO3)on1)NCc1ccc(F)cc1 | 35.5 µM [rising, single point] | 14.1 µM [rising, single point]
21 | O=C(NCCn1cc(SCc2ccccc2)c2ccccc21)c1ccccc1F | – | 20 µM [rising, single point]
22 | COc1cccc(-c2nc(=S)c3c(n2Cc2ccco2)CCCC3)c1 | 17.8 µM [rising, single point] | –
23 | FC(F)(F)c1cccc(NC(=S)NCCN2CCOCC2)c1 | 0.0891 µM [rising, full curve, poor fit] | 0.316 µM [rising, single point]
24 | CC(C)c1cc(C(=O)OCC(=O)NC(=O)NCc2ccco2)c(O)c(C(C)C)c1 | 12.6 µM [falling, single point] | 15.8 µM [falling, single point]
25 | CSc1nc(N(C)NC(=O)c2ccc(F)cc2)c2ccccc2n1 | – | 4.47 µM [rising, partial curve]
26 | O=C(Nc1ccccc1C(=O)OCC(=O)c1c[nH]c2ccccc12)c1ccco1 | – | 11.2 µM [rising, partial curve]
27 | CCOC(=O)CCS(=O)(=O)c1nc(-c2ccccc2)cc(C(F)(F)F)n1 | – | 14.1 µM [rising, partial curve]

Row | SMILES | AC50 [1] | AC50 [2]
28 | Nc1nnnn1NCc1cccc(OCc2ccccc2)c1 | 17.8 µM [rising, partial curve, poor fit] | 25.1 µM [rising, single point]
29 | CCC(C)NC(=O)c1ccc2nc(Cc3ccccc3)oc2c1 (configuration not stated) | 3.98 µM [falling, full curve] | 3.98 µM [falling, full curve, poor fit]
30 | COc1ccc(-c2nc3scc(CCNC(=O)Cc4ccc(F)cc4)n3n2)cc1 | 0.794 µM [rising, full curve, poor fit] | –
31 | COc1cccc(C(=O)c2cc3ccc(O)cc3oc2=O)c1 | 35.5 µM [rising, single point] | 20 µM [rising, single point]
32 | CCOC(=O)Cc1csc(NC(=S)NC(=O)c2ccc(Cl)cc2)n1 | – | 20 µM [falling, partial curve]
33 | O=C(Nc1cc(Cl)cc(Cl)c1)c1ccc(F)c(S(=O)(=O)NCc2ccccc2Cl)c1 | – | 31.6 µM [falling, partial curve, poor fit]
34 | CCN(CC)P(=O)(/C(Cl)=C\Nc1c(C)n(C)n(-c2ccccc2)c1=O)N(CC)CC | – | 0.398 µM [falling, full curve, poor fit]
35 | COCCCN=C(c1ccco1)n1c(=S)nc(-c2ccco2)n(CCCOC)c1=S | 3.55 µM [rising, single point] | 3.55 µM [rising, partial curve, poor fit]
36 | O=C(NNS(=O)(=O)c1ccc2ccccc2c1)c1cc(-c2ccccn2)nc2ccccc12 | – | 7.94 µM [rising, partial curve]
37 | Cc1ccc(-n2ncc(C(=O)Nc3c(Cl)cccc3Cl)c2C2CCNCC2)cc1 | 2.51 µM [falling, full curve, poor fit] | –
38 | Cn1ccnc1Sc1cc(Cl)ccc1[N+](=O)[O-] | – | 11.2 µM [rising, partial curve, poor fit]
39 | COc1ccc(OCCn2c(=O)sc3ccccc32)cc1 | 5.62 µM [rising, partial curve] | –
40 | O=[N+]([O-])c1ccc(/C=C/c2nc3ccc([N+](=O)[O-])cc3[nH]2)cc1 | – | 5.62 µM [rising, single point]
41 | COc1ccccc1OCC(O)CN1CCN(CC(=O)Nc2c(C)cccc2C)CC1 (configuration not stated) | 2.51 µM [rising, partial curve, poor fit] | 0.794 nM [rising, full curve, poor fit] and 6.31 µM [falling, single point]
42 | COc1ccc(N(C(=O)C(C)C)S(=O)(=O)c2cccc([N+](=O)[O-])c2)cc1 | 0.0316 µM [falling, full curve, poor fit] | –
43 | COc1ccc(C(=O)CSc2ccc(-c3ccccc3)nn2)cc1 | – | 11.2 µM [rising, single point]
44 | Cc1ccc(NC(=O)C(C)c2cccc(C(=O)c3ccccc3)c2)cc1O (configuration not stated) | 0.112 µM [rising, full curve] | 3.98 µM [rising, full curve]
45 | COCC(=O)Nc1nnc(CCc2ccccc2)s1 | 3.16 µM [falling, partial curve] | 2.82 µM [falling, partial curve, poor fit]
46 | Cc1ccc(N2CC(NC(=O)C3CCCCC3)CC2=O)cc1C (configuration not stated) | 3.16 µM [falling, partial curve, poor fit] | 6.31 µM [falling, full curve, poor fit]
47 | COc1ccc(C2OC(=O)CC2C(=O)NC(C)C)cc1 (configuration not stated) | 0.398 µM [falling, single point] | 0.631 µM [falling, full curve, poor fit]
48 | COc1ccc(CC(=O)NNc2ncnc3c2cnn3-c2ccc(C)cc2)cc1 | – | 22.4 µM [rising, single point]
49 | O=S(=O)(Nc1ccccc1)c1ccc(Oc2ncc(C(F)(F)F)cc2Cl)cc1 | – | 17.8 µM [rising, single point]
50 | Cc1ccc(S(=O)(=O)N2CCN(C(=O)CSC3CCCC3)CC2)c(C)c1 | – | 28.2 µM [rising, single point]
51 | CCCN(CCC)CC(O)Cn1cc(/C=C/C(=O)c2cccs2)c2ccccc21 (configuration not stated) | 15.8 µM [falling, single point] | 15.8 µM [falling, single point]
52 | CCc1nc(NCCc2ccccn2)c2nnn(Cc3ccccc3F)c2n1 | – | 35.5 µM [rising, single point]
53 | COc1cc2c(cc1NC(=O)c1cccc(F)c1)CCCC2 | 20 µM [rising, single point] | 31.6 µM [rising, single point]

Molecules shown so far that have a thiophene ring, fused or not (2):
Row | SMILES | AC50 [1] | AC50 [2]
6 | COc1ncc2nc(-c3ccc(F)cc3)c(=O)n(Cc3cccs3)c2n1 | 12.6 µM [falling, partial curve] | 22.4 µM [falling, partial curve]
51 | CCCN(CCC)CC(O)Cn1cc(/C=C/C(=O)c2cccs2)c2ccccc21 (configuration not stated) | 15.8 µM [falling, single point] | 15.8 µM [falling, single point]
